Screen size: about 330,000 compounds; about 1,000 (0.3%) were called active. The shares of active, inactive and inconclusive entries below differ from those in the screen. Calls follow the shape of the dose curve; as a rule, active = well fitted inhibition curve with a large enough effect; inconclusive = small, poorly fitted or top-dose-only effect; inactive = no such curve, though single readings can be large or run the other way; tested in mouse RAW 264.7 cells. A potency beside an inconclusive call is a rough fit, not a confirmed value.
Experiment: qHTS for Inhibitors of Cell Surface uPA Generation; also: nearly all actives have a fitted effect of over 55% in size
Conditions: cell surface uPA generation assay; series mostly up to 38.3 µM; activity change, negative = inhibition: at the top concentration
Procedure, shortened: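 ATP-Lite luminescence in RAW 264.7 cells after 24 h of exposure to compound, tested up to 38.3 uM final in 1:5 steps. Raised ATP reflects inhibition of uPA-dependent LF delivery to the cytoplasm.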
% is scaled to controls: 0 for no effect and ±100 for the full control effect; potency is read from the fitted curve at half-maximal effect.

| Structure (SMILES) | Potency | activity change, negative = inhibition |
| --- | --- | --- |
| O=C(NCc1ccccc1Cl)C1CCCN1S(=O)(=O)c1ccc(F)cc1 (stereo not drawn) | inconclusive: 0.794 µM [inhibitor, full curve, poor fit] |  |
| Cn1nnnc1Sc1ncnc2scc(-c3cccc4c3sc3ccccc34)c12 | inconclusive: 8.91 µM [inhibitor, partial curve, poor fit] |  |
| O=C(Cc1ccccc1F)N1CCN(S(=O)(=O)c2ccc(Cl)cc2)CC1 |  | inactive: -5.04% |
| Cc1nc2ccccc2c2oc(C(=O)NC3CC3)cc12 | inconclusive: 7.94 µM [inhibitor, single point] |  |
| COc1cccc(C(=O)O/N=C(\N)c2ccccn2)c1OC | inconclusive: 3.16 µM [inhibitor, single point] |  |
| OCCN1CCN(CC/C=C2/c3ccccc3CSc3ccccc32)CC1 | inconclusive: 12.6 µM [inhibitor, single point] |  |
| O=C(N/N=C/c1cccc(O)c1)c1cc(-c2ccccc2)nc2ccccc12 | inconclusive: 6.31 µM [inhibitor, single point] |  |
| O=C(CCCCCNC(=O)c1ccccc1)N/N=C/c1ccc(O)cc1O |  | inactive: -0.542% |
| C/C(N)=C(/C#N)C(=O)COC(=O)c1ccccc1Oc1ccccc1 |  | inactive: 4.1% |
| COc1ccc2cc3cc(C(=O)NCCCN4CCC(C)CC4)oc3nc2c1 | inconclusive: 11.2 µM [inhibitor, single point] |  |
| Cc1ccccc1/C=C1\CCCc2ccccc2C1=O |  | inactive: -7.43% |
| COCC(=O)N[C@@H]1c2ccccc2CC[C@@H]1OCc1ccccc1 |  | inactive: -1.7% |
| O=C(O)c1cc(C(=O)O)cc(-c2ccc(/C=c3/sc4nc5ccccc5n4c3=O)o2)c1 |  | inactive: 0.596% |
| O=C(c1ccc(F)cc1)N1CCCC(C(=O)N2CCCCC2)C1 (stereo not drawn) | inconclusive: 11.2 µM [inhibitor, partial curve, poor fit] |  |
| COc1ccccc1N(C(=O)CCl)c1cn(C(C)=O)c2ccccc12 | inconclusive: 2.51 µM [inhibitor, full curve, poor fit] |  |
| CCOc1ccc(Nc2cc(=O)oc3ccccc23)cc1 | inconclusive: 7.08 µM [inhibitor, partial curve, poor fit] |  |
| COc1ccc2cc3cc(C(=O)N(C)C4CCCCC4)oc3nc2c1 | inconclusive: 12.6 µM [inhibitor, single point] |  |
| Cc1cc(O)c(C)c(O)c1/C=N/NC(=O)c1cccnc1 |  | inactive: -11.2% |
| CC1=CC(C)(C)n2c(O)c(N=NC(N)=S)c3cc(C)cc1c32 | inconclusive: 1.58 µM [inhibitor, full curve, poor fit] |  |
| CC(C)(C)NC(=O)CCSc1nnc(-c2ccco2)o1 |  | inactive: 1.62% |
| COc1cc(/C=C(\C#N)C(=O)c2ccc(O)c(O)c2)cc(I)c1O | inconclusive: 7.94 µM [inhibitor, single point] |  |
| O=C(CN1CCCCC1)NCC(=O)Nc1ccc(F)c(F)c1F |  | inactive: -1.52% |
| O=C(COc1ccc(Cl)cc1Cl)N/N=C/c1ccc[nH]1 | inconclusive: 14.1 µM [inhibitor, single point] |  |

No new results follow: entries from further up.

| Structure (SMILES) | Potency | activity change, negative = inhibition |
| --- | --- | --- |
| CC1=CC(C)(C)n2c(O)c(N=NC(N)=S)c3cc(C)cc1c32 | inconclusive: 1.58 µM [inhibitor, full curve, poor fit] |  |
| CC(C)(C)NC(=O)CCSc1nnc(-c2ccco2)o1 |  | inactive: 1.62% |

More structures

| Structure (SMILES) | Potency | activity change, negative = inhibition |
| --- | --- | --- |
| CCCCCCCC[n+]1cccc2c3ccccc3ccc21 | active: 0.891 µM |  |
| C#CCNC(=O)C1=C[C@@H](c2ccccc2)[C@H](CCCO)[C@@H](OCC)O1 | inconclusive: 12.6 µM [inhibitor, single point] |  |
| O=C(NCC(=O)N1CCCC1)c1ccc(Br)cc1 |  | inactive: -1.79% |
| O=C(Nc1ncnc2sc3c(c12)CCCC3)c1ccncc1 |  | inactive: -0.969% |
| O=C1CC(c2ccc(Cl)cc2)CC(=O)C1CS(=O)(=O)c1ccccc1 (stereo not drawn) |  | inactive: 6.65% |
| CCN(C(=O)c1cc2c(=O)[nH]c3ccc(C)cc3c2s1)c1ccc(F)cc1 |  | inactive: -15.2% |
| Cc1ccc(NS(=O)(=O)c2ccc(-c3cnc(C4CC4)o3)cc2)cc1 | inconclusive: 3.55 µM [inhibitor, partial curve, poor fit] |  |
| COC(=O)c1sc(NC(=O)COc2cccnc2[N+](=O)[O-])c(C(=O)OC)c1C | inconclusive: 12.6 µM [inhibitor, single point] |  |
| Cc1cccc(CN2CCCC(C(=O)N3CCCCC3)C2)c1 (stereo not drawn) |  | inactive: 2.6% |
| CCO[C@H]1OC(C(=O)NC2CC2)=C[C@@H](c2ccccc2)[C@@H]1CCCO | inconclusive: 28.2 µM [inhibitor, single point] |  |
| Cc1c(C)n(Cc2ccccc2)c2ccc(C(=O)NCCN3CCOCC3)cc12 |  | inactive: 9% |
| CSc1cccc(NC(=S)NC(=O)c2cccnc2)c1 | inconclusive: 11.2 µM [inhibitor, single point] |  |
| CCn1cc(/C=C(\NC(=O)c2ccccc2OC)C(=O)N2CCN(C)CC2)c2ccccc21 | inconclusive: 3.16 µM [inhibitor, partial curve, poor fit] |  |
| Clc1cccc(CSc2nc3ccncc3[nH]2)c1 | active: 4.47 µM |  |
| O=C1C=C(C2OC(CO)C(O)C2O)C(=O)N1 (stereo not drawn) | inconclusive: 22.4 µM [inhibitor, single point] |  |
| CCC(CO)Nc1ccc(-c2n[nH]c(=O)c3ccccc23)cc1[N+](=O)[O-] (stereo not drawn) | inconclusive: 12.6 µM [inhibitor, single point] |  |
| CCOC(=O)C1CCCN(C(=O)c2cc(-c3ccc(C)cc3)on2)C1 (stereo not drawn) | inconclusive: 12.6 µM [inhibitor, partial curve] |  |
| COc1cc(NC(=O)Cn2ccsc2=N)c(C)cc1[N+](=O)[O-] | inconclusive: 3.16 µM [inhibitor, full curve, poor fit] |  |
| COc1ccc(-n2nc(C(=O)NCC(=O)N3CCN(Cc4ccccc4)CC3)c3ccccc3c2=O)cc1OC |  | inactive: -3.04% |
| CCOc1cc(/C=C2\C(=N)N3N=C(C)SC3=NC2=O)ccc1OCCOc1cccc(OC)c1 | inconclusive: 0.0089 µM [inhibitor, full curve, poor fit] |  |
| O=C(c1cc(-c2ccco2)on1)N1CCN(c2ccccc2)CC1 | inconclusive: 12.6 µM [inhibitor, single point] |  |
| NC(=S)N=Nc1c(O)n(Cc2ccc(F)cc2)c2ccccc12 | inconclusive: 17.8 µM [inhibitor, partial curve, poor fit] |  |
| CCOC(=O)c1cnc2c(OC)cccc2c1NCc1cccnc1 | inconclusive: 11.2 µM [inhibitor, single point] |  |

Structural class, the entries above containing a cyano group (two)

| Structure (SMILES) | Potency | activity change, negative = inhibition |
| --- | --- | --- |
| C/C(N)=C(/C#N)C(=O)COC(=O)c1ccccc1Oc1ccccc1 |  | inactive: 4.1% |
| COc1cc(/C=C(\C#N)C(=O)c2ccc(O)c(O)c2)cc(I)c1O | inconclusive: 7.94 µM [inhibitor, single point] |  |

Following part

| Structure (SMILES) | Potency | activity change, negative = inhibition |
| --- | --- | --- |
| CC1(C(=O)N2CCC(CO)(Cc3cccc(C(F)(F)F)c3)CC2)CC1 | inconclusive: 0.178 µM [inhibitor, full curve, poor fit] |  |
| Cc1cc2ncn(S(=O)(=O)c3ccc(F)cc3)c2cc1C |  | inactive: 0.949% |
| O=C(NCc1ccc(C(F)(F)F)cc1)C1CC(c2ccc(C(F)(F)F)cc2)=NO1 (stereo not drawn) | inconclusive: 12.6 µM [inhibitor, single point] |  |
| O=C(O)c1ccc(Cl)c(S(=O)(=O)N(Cc2ccccc2)c2ccc(F)cc2)c1 |  | inactive: 2.83% |
| Cc1ccc(NS(=O)(=O)c2cc(C(=O)NCCSc3ccc(C)cc3)ccc2C)cc1 | inconclusive: 7.94 µM [inhibitor, single point] |  |
| Cn1nccc1C(=O)N/N=C/c1ccccc1[N+](=O)[O-] | inconclusive: 10 µM [inhibitor, partial curve, poor fit] |  |
| COc1ccc(NC(=O)N(C)C[C@H]2Oc3c(NC(=O)c4nc5ccccc5s4)cccc3C(=O)N([C@@H](C)CO)C[C@H]2C)cc1 | inconclusive: 10 µM [inhibitor, partial curve, poor fit] |  |
| CCOC(=O)c1cnn(C)c1NC(=O)c1ccc(Cl)cc1Cl |  | inactive: -3.56% |
| COC(=O)c1c(NC(=O)CCS(=O)(=O)c2ccccc2)sc2c1CCN(C)C2 | inconclusive: 12.6 µM [inhibitor, single point] |  |
| O=C(NCC1CCCO1)c1cc2c([nH]c3ccccc32)c(-c2ccc(F)cc2)n1 (stereo not drawn) | inconclusive: 28.2 µM [inhibitor, single point] |  |
| CCN(Cc1ccncc1)C(=O)c1ccc(C)o1 |  | inactive: -2.61% |
| COC(=O)C1CCN(C(=O)/C=C/c2ccccc2)CC1 |  | inactive: -4.46% |
| Cc1ccc(/C(C#N)=C\c2ccc(N3CCOCC3)o2)cc1 | inconclusive: 3.98 µM [inhibitor, partial curve, poor fit] |  |
| C#CCOCCOCCOCCNc1nc(N2CCN(C(=O)CCCCCCCCCCNC(=O)Cn3cc(C[C@@H](C)O)nn3)CC2)nc(N2CCN(C(=O)CCCCCCCCCCNC(=O)[C@H](CCCN=C(N)N)n3cc(C[C@@H](C)CC)nn3)CC2)n1 | inconclusive: 6.31 µM [inhibitor, single point] |  |
| CC1(C)CC(N2CCCC2)=CC(=[N+]2CCCC2)C1 | inconclusive: 0.891 µM [inhibitor, full curve] |  |
| CC[C@]12c3[nH]c4ccc(Cl)cc4c3CCN1C(=O)[C@@H](CC(=O)NCC13CC4CC(CC(C4)C1)C3)C[C@@H]2C(=O)N1CCN(C(=O)C2CC2)CC1 | inconclusive: 20 µM [inhibitor, single point] |  |
| N#CCC(=O)N/N=C/c1cn(Cc2cccc3ccccc23)c2ccccc12 | inconclusive: 2.82 µM [inhibitor, partial curve, poor fit] |  |
| CCOc1ccc2[nH]c(=O)c(CN(Cc3cccs3)Cc3nnnn3C(C)(C)C)cc2c1 | inconclusive: 7.08 µM [inhibitor, single point] |  |
| COc1ccc(COc2ccc3ccc(=O)oc3c2)cc1 | inconclusive: 3.16 µM [inhibitor, partial curve, poor fit] |  |
| Cc1ccc(S(=O)(=O)Nc2ccc(NC(=O)c3c(F)c(F)c(F)c(F)c3F)cc2)cc1 | inconclusive: 12.6 µM [inhibitor, single point] |  |
| COc1cc(NC(=O)COc2ccc(Cl)cc2)ccc1NC(=O)C(C)C |  | inactive: -1.48% |
| CCOC(=O)C1=C(COC(=O)c2ccccc2OC(F)F)NC(=O)NC1C (stereo not drawn) | inconclusive: 31.6 µM [inhibitor, partial curve, poor fit] |  |

Reference: PubChem BioAssay AID540303 (National Center for Advancing Translational Sciences (NCATS), 2011)
